Experimental data published in article PMC11177969, “Comprehensive Analyses of the Effects of the Small-Molecule Inhibitor of the UHM Domain in the Splicing Factor U2AF1 in Leukemia Cells” (Research Square, 2024).

Test system: K562-U2AF1^S34F cells
Assay: RNA-seq experiment
Assay type: cell-based

In the case of `Cn1nc(C2(C)CCNCC2)cc1O` [SF1–8], the “down-regulated genes in the top 99 differentially expressed genes” value (SF1–8 treated vs control) was 63, the “up-regulated genes in the top 99 differentially expressed genes” value (SF1–8 treated vs control) was 36 and the “transcripts with significantly changed mRNA expression levels” value (after SF1–8 treatment) was 1034.

No dose or concentration is given here for some results. A unit is not stated for every read-out.
